Where a name gives a salt, the structure may show the parent alone. ± gives the standard deviation of the averaged measurements. The list shows a part of the results. These are raw signals, not scaled to a control.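 Across three biological replicates, HeLa cells were imaged for ribosome assembly using ENP1 staining (export block present or absent) or inducible tagged ribosomal protein reporters. Machine learning classified each cell's signal localization relative to DMSO controls. Hits exceeded the DMSO false-positive mean by five standard deviations and were then visually confirmed.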

In test [1] the test system is HeLa K (ENP1 immunofluorescence, +LMB). Kind of test: fraction of cells with nucleolar or nucleolar/nucleoplasmic ENP1 signal (MainHitrate); higher = more cells with nucleolar/nuclear readout signal (for ENP1 -LMB: less RNAPI inhibition; for +LMB ENP1 and RP reporters: stronger nuclear/nucleolar retention, i.e. ribosome biogenesis defect). The following applies: concentration: 1 µM; treatment time: 6 h; ENP1 +LMB; leptomycin B: 20 nM, last 1.5 h.

Test [2] relates to HeLa K (ENP1 immunofluorescence, no LMB). The description is as above. Conditions: concentration: 1 µM; treatment time: 6 h; ENP1 -LMB; leptomycin B: none.
Test [3] concerns HeLa RPS2-YFP reporter. Kind of test: fraction of reporter-positive cells with nuclear (nucleolar or nucleolar/nucleoplasmic) RPS2-YFP (MainHitrate); higher = more cells with nucleolar/nuclear readout signal (for ENP1 -LMB: less RNAPI inhibition; for +LMB ENP1 and RP reporters: stronger nuclear/nucleolar retention, i.e. ribosome biogenesis defect). Conditions: concentration: 1 µM; treatment time: 6 h.

For test [4], the system named is HeLa RPL29-GFP reporter. Kind of test: fraction of reporter-positive cells with nuclear (nucleolar or nucleolar/nucleoplasmic) RPL29-GFP (MainHitrate); higher = more cells with nucleolar/nuclear readout signal (for ENP1 -LMB: less RNAPI inhibition; for +LMB ENP1 and RP reporters: stronger nuclear/nucleolar retention, i.e. ribosome biogenesis defect). Conditions: concentration: 1 µM; treatment time: 6 h.

On to `Cc1ccc(O)c([C@H](CCN(C(C)C)C(C)C)c2ccccc2)c1` [Tolterodine tartrate (Detrol LA)], for which the values for the fraction in test [1] and in test [2] were 0.142 ± 0.23 and 0.9949 ± 0.0089, respectively. The “fraction of reporter-positive cells with nuclear” value (shortened to “fraction … with nuclear”) in test [3] was 0.134 ± 0.11; in test [4] it was 0.232 ± 0.078.

On to `CC1(C)S[C@@H]2[C@H](NC(=O)[C@H](N)c3ccccc3)C(=O)N2[C@H]1C(=O)O` [Ampicillin sodium], for which the fraction in test [1] was determined as 0.125 ± 0.19; in test [2] it was 0.968 ± 0.055. Besides, the “fraction … with nuclear” value was found to be 0.124 ± 0.081 in test [3] and 0.207 ± 0.093 in test [4].

Take `CCOC(=O)C1=C(COCCN)NC(C)=C(C(=O)OC)C1c1ccccc1Cl` (stereo unspecified) [Amlodipine besylate (Norvasc)]: the figures for the fraction in test [1] and in test [2] were 0.066 ± 0.09 and 0.9954 ± 0.008, respectively. The figures for the “fraction … with nuclear” value in test [3] and in test [4] were 0.109 ± 0.12 and 0.218 ± 0.086, respectively.

Turning to `COc1cc(/C=C/C(=O)CC(=O)/C=C/c2ccc(O)c(OC)c2)ccc1O` [Curcumin], the fraction was found to be 0.0885 ± 0.12 in test [1] and 0.991 ± 0.016 in test [2]. For the same compound, the “fraction … with nuclear” value in test [3] worked out at 0.114 ± 0.073; in test [4], 0.218 ± 0.053.

Regarding `CC(C)[C@H]1CC[C@H](C(=O)N[C@H](Cc2ccccc2)C(=O)O)CC1` [Nateglinide (Starlix)], the fraction in test [1] was found to be 0.335 ± 0.55; in test [2], 0.992 ± 0.015. In addition, the results for the “fraction … with nuclear” value in test [3] and in test [4] were 0.0891 ± 0.069 and 0.224 ± 0.074, respectively.

With `COCCOC(=O)C1=C(C)NC(C)=C(C(=O)OC/C=C/c2ccccc2)C1c1cccc([N+](=O)[O-])c1` (stereo unspecified) [Cilnidipine], the fraction in test [1] stood at 0.0833 ± 0.046; in test [2], 0.9978 ± 0.0038. Besides, the results for the “fraction … with nuclear” value in test [3] and in test [4] were 0.0993 ± 0.094 and 0.251 ± 0.031, respectively.

Regarding `COC(=O)N/N=C/c1c[n+]([O-])c2ccccc2[n+]1[O-]` [Carbadox], the fraction in test [1] stood at 0.109 ± 0.15; in test [2] it was 0.9963 ± 0.0064. Also, the results for the “fraction … with nuclear” value in test [3] and in test [4] were 0.13 ± 0.14 and 0.322 ± 0.22, respectively.

As to `Nc1nc(O)c2ncn(CCC(CO)CO)c2n1` [Penciclovir], the fraction in test [1] was 0.0778 ± 0.085; in test [2], 0.973 ± 0.046. The “fraction … with nuclear” value in test [3] stood at 0.118 ± 0.096; in test [4], 0.214 ± 0.051.

`Nc1cc(C(Cl)=C(Cl)Cl)c(S(N)(=O)=O)cc1S(N)(=O)=O` [Clorsulon]: the values for the fraction in test [1] and in test [2] were 0.151 ± 0.2 and 0.984 ± 0.028, respectively. For the same compound, the “fraction … with nuclear” value in test [3] is 0.12 ± 0.1; in test [4] it was 0.218 ± 0.053.
